This passage reports binding signal results from publication PMC7819943, “Rice protein-binding microarrays: a tool to detect cis-acting elements near promoter regions in rice”.

Chains of the proteins cited; added tags and fusions are not shown.
UniProt Q0JBA9, entry or part of it: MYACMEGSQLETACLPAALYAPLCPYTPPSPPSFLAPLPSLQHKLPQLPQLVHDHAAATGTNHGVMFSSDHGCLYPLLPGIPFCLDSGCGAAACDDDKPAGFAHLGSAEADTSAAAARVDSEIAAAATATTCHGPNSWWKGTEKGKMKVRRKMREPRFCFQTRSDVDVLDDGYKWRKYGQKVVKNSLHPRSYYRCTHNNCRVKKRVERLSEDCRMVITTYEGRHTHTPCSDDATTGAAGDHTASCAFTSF

The other results are listed elsewhere or left out.

The experiment concerns the target OsWRKY34 (Oryza sativa, UniProt Q0JBA9 1-250). Put plainly: protein-binding microarray (RPBM); PBS, 2% BSA, 51.3 ng/ul salmon testes DNA, 50 uM zinc acetate, 200 nM TF, 25 C, 1 h; high values mean tight binding. The note with it: protein: recombinant; tags: N-terminal polyhistidine and DsRed monomer fusion (pET32a); label: CyDye5-dUTP incorporated in the synthesized complementary strand; 3' TTTTT single-stranded linker to array surface; dsDNA, one strand shown. An outline of the steps:
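Transcription factors were made in E. coli BL21-CodonPlus as N-terminal fusions to a polyhistidine tag and DsRed, then purified on Ni–NTA. After primer extension with Cy5-dUTP and blocking with 2% BSA, a custom Agilent array was exposed for 1 h at 25 °C to 200 nM protein in PBS, 2% BSA, salmon testes DNA and 50 µM zinc acetate. Washed arrays were scanned on an Axon 4000B, and the binding signal is per-feature fluorescence intensity in arbitrary units.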
Regarding “GAGCTTTCTGCTTGTCTCTTCCCATGTCTTCTTGTACTCCCGGAGTCACCTAGTGCAG”, the binding signal was 8390 fluorescence intensity (a.u.).
Then “GGATCCATGCCCGGGCCTCCACCCTCGTCAGCTCTGTTGACGGAGTCACCTAGTGCAG”, with 8800 fluorescence intensity (a.u.).
Then “ATCCATGTTTACCTCCAATATTTTTCCACATGAATAAAAACGGAGTCACCTAGTGCAG”, with 9660 fluorescence intensity (a.u.).
As to “GGCCGCCACCTCGCTTTCCACCACCCTAGCAATCACCAGACGGAGTCACCTAGTGCAG”, the binding signal was 8550 fluorescence intensity (a.u.).
The same measure for “TTCCTCCGTCTGCGTGCCGGCTTCTGTCTTCCTCCGCGCGCGGAGTCACCTAGTGCAG”: 17300 fluorescence intensity (a.u.); for “CACATCAAATTTATTTTCTCCCAAAATGAGGCGCGCAACACGGAGTCACCTAGTGCAG”: 8670 fluorescence intensity (a.u.); for “ACTCCAATTTTTGTCATCTATTGACCTTTGGCCATATTTTCGGAGTCACCTAGTGCAG”: 11900 fluorescence intensity (a.u.).
The same measure for “TCACCGATATGTGTTTCTTCCTTGTTGAATTGTCTATGTCCGGAGTCACCTAGTGCAG”: 13900 fluorescence intensity (a.u.); for “CCGTATCCTTGCAACGCGGGCGCCGCGCGTTCCACTCTCTCGGAGTCACCTAGTGCAG”: 9510 fluorescence intensity (a.u.); for “ATGGTCAACCGTATTGTATTGTCACGAGCGCAACATATCACGGAGTCACCTAGTGCAG”: 9020 fluorescence intensity (a.u.).
The same measure for “ACGTCACCCCGCCTTTACTCGCTTTCTCCGTTCTCCCTAGCGGAGTCACCTAGTGCAG”: 10800 fluorescence intensity (a.u.); for “CTTTTCTGGACTCTCATGTCTCATTGCTTTACACCATTGTCGGAGTCACCTAGTGCAG”: 10900 fluorescence intensity (a.u.).
For the sequence “ATTTTAGGAGCACTGCATCCACAGTGGATCCCCGAATTGTCGGAGTCACCTAGTGCAG”, the binding signal is 8370 fluorescence intensity (a.u.).
Then “CCCCACCCCGCTCCTGCCTTCTAGGAGGGGCTGTTCCGCGCGGAGTCACCTAGTGCAG”, with 8390 fluorescence intensity (a.u.).
Then “GCCCACATGTCAGCAACTCAAAGTCCGCCGCCATTTTCTTCGGAGTCACCTAGTGCAG”, with 11000 fluorescence intensity (a.u.).
“TTGACTATAACCGGTCCACGCCGTGACCGCCACCGGCTGCCGGAGTCACCTAGTGCAG”: the binding signal is 9630 fluorescence intensity (a.u.).
Then “GTTTTAATCCCTATCATGCAAACATCCTCGGCTAACCATCCGGAGTCACCTAGTGCAG”, with 8970 fluorescence intensity (a.u.); and “CCGCTGACTTTTTTATATATAAGTCAAGGTGCTGTTTGGACGGAGTCACCTAGTGCAG”, with 10100 fluorescence intensity (a.u.).
Then “CTTTCTTAATCTAATTTGTGTTTTCTTGACTGTCACGTGCCGGAGTCACCTAGTGCAG”, with 8710 fluorescence intensity (a.u.); and “GACTTGGCCACATCGTTCACACACTTCACTCACACGAGAGCGGAGTCACCTAGTGCAG”, with 9130 fluorescence intensity (a.u.).
The same measure for “CTACCGTTTCGCTTTTTCCTCTTATATGCCGGGGCTGTATCGGAGTCACCTAGTGCAG”: 8660 fluorescence intensity (a.u.).
In the case of “GTCCTTTCAGTCTGTGTCTCGTCATCGCGGCGGTATAAATCGGAGTCACCTAGTGCAG”, the binding signal is 8680 fluorescence intensity (a.u.).
Consider “ATTATTATCTTGGTCGTACTGTGGAAATGGGTTTGGGAGGCGGAGTCACCTAGTGCAG”, for which the binding signal is 10100 fluorescence intensity (a.u.).
The same measure for “CGTAATTGCATCTCTATTTTCATCTCTACTTCATTTCTCTCGGAGTCACCTAGTGCAG”: 9260 fluorescence intensity (a.u.).
As to “CCCTCCGCCGCGCCGGCCATGCGCTCTTTGCGCATCCTCTCGGAGTCACCTAGTGCAG”, the binding signal is 9340 fluorescence intensity (a.u.).
Turning to “ATTCATTTATTTTGTTGTTTCTTATGTGTGCGTTAATGAACGGAGTCACCTAGTGCAG”, the binding signal was 8570 fluorescence intensity (a.u.).
The same measure for “ATTCCACTCTCCTGCAAGGCAGTCCCATGTGAGTTATCCACGGAGTCACCTAGTGCAG”: 8580 fluorescence intensity (a.u.); for “GGTCGAGATATCTGGTTTTGTAGTTTAGGGTCATGGTTTACGGAGTCACCTAGTGCAG”: 11000 fluorescence intensity (a.u.); for “CGATTCGAAATCTGCCACGCTTTATTCCCGCCATCTCATTCGGAGTCACCTAGTGCAG”: 10300 fluorescence intensity (a.u.).
As to “CTCTCGTCTCTCTTCACCTCATCCATATATGCATGTATGTCGGAGTCACCTAGTGCAG”, the binding signal is 9080 fluorescence intensity (a.u.).
The same measure for “CACACCGACCAGTACTTGTTCTTTACTCAACTTACTCCAACGGAGTCACCTAGTGCAG”: 10300 fluorescence intensity (a.u.); for “TACGTTCATACCAACTTATTTATTTATATCGAACTTATCTCGGAGTCACCTAGTGCAG”: 8720 fluorescence intensity (a.u.); for “GTCGTAGTTAATTTTTGGCATGACGTTGACCATTTATCTACGGAGTCACCTAGTGCAG”: 8760 fluorescence intensity (a.u.).
Then “ATCATCCTCGCTTTCCGATTATTCTTCATCGCTAAACTCACGGAGTCACCTAGTGCAG”, with 8490 fluorescence intensity (a.u.).
With “CCGCCGCCGCCACCGCCGCCGCCATGGCCGCCGCCGCCGCCGGAGTCACCTAGTGCAG”, the binding signal is 9190 fluorescence intensity (a.u.).
Then “CAAGCTGCATGCCCAGCTGCACCTCTCTGTCTCTCCGATCCGGAGTCACCTAGTGCAG”, with 8460 fluorescence intensity (a.u.); and “CACAGTACACCCGGCCCCAAGCTTTTGCTTAATTCGCACTCGGAGTCACCTAGTGCAG”, with 8180 fluorescence intensity (a.u.); and “TCATCTATTTTTTTTGTAAAACAACTTTTCAACTTCTTATCGGAGTCACCTAGTGCAG”, with 8020 fluorescence intensity (a.u.).
The same measure for “ATGTTGTTTGTTATGATGCTGTTCTTTTGTTGTTGTTTACCGGAGTCACCTAGTGCAG”: 11700 fluorescence intensity (a.u.).
Then “ACAATGGTTGTCAATAGTGGTCTCTTAACGTCGCTAACTACGGAGTCACCTAGTGCAG”, with 10800 fluorescence intensity (a.u.); and “AATGTATGACACCGTTGACTTCTTGACCAACGTTTAACCACGGAGTCACCTAGTGCAG”, with 18700 fluorescence intensity (a.u.).
As for “GTACGAAAGGGGTGGGTACACCATGGTTGGGGAGGTTGAACGGAGTCACCTAGTGCAG”, the binding signal was 13200 fluorescence intensity (a.u.).
Then “ATTTTACATGATTTATCTTTTTTATATTTTTGCTATTAATCGGAGTCACCTAGTGCAG”, with 8110 fluorescence intensity (a.u.).
Then “TTGTCGTCGTGGTCTTCTCTTAGATTATTATTATTATTATCGGAGTCACCTAGTGCAG”, with 10400 fluorescence intensity (a.u.).
As to “GGGTTTGCTCGCTTTTTTTATGTTGCGGCGATGGCGACGGCGGAGTCACCTAGTGCAG”, the binding signal is 8610 fluorescence intensity (a.u.).
Then “AAAGAATTAAAGGTTAGTGGGTCTTTTGGGGTGGAGTGGACGGAGTCACCTAGTGCAG”, with 10300 fluorescence intensity (a.u.); and “CATTGCAGCTTATTACACACGCCTCTTGGTTTCTTTTTCCCGGAGTCACCTAGTGCAG”, with 8480 fluorescence intensity (a.u.).
Then “ACCGCCTCGCTTTTCCTTCTCCACCATTTCTCCTTGTCTCCGGAGTCACCTAGTGCAG”, with 9130 fluorescence intensity (a.u.).
The same measure for “GCGTGTTTTTCTACCCGATCGACCTTCTGATTTTGGCTATCGGAGTCACCTAGTGCAG”: 11100 fluorescence intensity (a.u.); for “CCTATTGCTGTGTTTTCTCATCCCCACATTTCAAAGGAGCCGGAGTCACCTAGTGCAG”: 9690 fluorescence intensity (a.u.).
As for “CCGCTCCGTTTTGTGTCGTTTTGTGTATTTTCTCCACTCACGGAGTCACCTAGTGCAG”, the binding signal is 17400 fluorescence intensity (a.u.).
Consider “AATACCCCGTTCTTCCGGTTAATTGCGTTCGAACCCTGTTCGGAGTCACCTAGTGCAG”, for which the binding signal was 9390 fluorescence intensity (a.u.).
The same measure for “TAATTAGCTTTATTGTGTGGTGTGATGTTAAGTGTTTCTACGGAGTCACCTAGTGCAG”: 8630 fluorescence intensity (a.u.); for “ACTTCTATTTATCTTCAAACTTTAGTCATCTCTTTTTTTCCGGAGTCACCTAGTGCAG”: 9070 fluorescence intensity (a.u.).
